According to patent US20040072183A1, “Adhesive protein and uses thereof” (priority 2000, published 2004):
At least one compound was matched to its structure with a doubt left.

Tested on: spiggin mRNA
Assay: Methyltestosterone induction of spiggin mRNA via water in juvenile fish (slot blot, FIG. 5)
Type: in vivo, three spined stickleback
Conditions: 10 uM flutamide together with 10 nM methyltestosterone, 10 days
Procedure: Juvenile three spined sticklebacks, with a body weight of approximately 100 mg, were exposed to different doses (100 pM, 10 nM and 1 uM) of methyltestosterone or to a combination of 10 nM methyltestosterone and 10 uM flutamide (an antiandrogen). After 10 days the fish were sacrificed. Whole fish were homogenized and spiggin mRNA levels were determined using slot blot analysis.

CC(C)C(=O)Nc1ccc([N+](=O)[O-])c(C(F)(F)F)c1 [flutamide] was tested, and the “Inhibition of methyltestosterone induction of spiggin mRNA” value was “inhibiting ability”.
